Reference: US20090221539A1, “METHOD OF DETECTING AND REDUCING BOAR TAINT USING NUCLEAR RECEPTORS” (UNIVERSITY OF GUELPH, priority 2005, published 2009)
For at least one compound, name, drawing or mass did not settle the structure.

Tested on: SULT2A1
Assay: SULT2A1 activity in primary porcine Leydig cells after treatment with nuclear receptor ligands ([3H]DHEA to DHEAS conversion)
Type: cell-based, pig
Conditions: primary Leydig cells of mature Yorkshire boars, 24 hours; CITCO 1 μM, TCPOBOP 250 nM, phenobarbital 2 mM, phenytoin 50 μM, rifampicin 10 μM, PCN 10 μM, dexamethasone 0.1 μM, lithocolic acid 100 μM; vs control
Experimental: FIG. 1: Effect of nuclear receptor ligands on SULT2A1 activity in porcine Leydig cells. Primary porcine Leydig cells were isolated from mature Yorkshire boars and the SULT2A1 activity was determined. Leydig cells were cultured in the presence of; CITCO (1 μM), TCPOBOP (250 nM), Phenobarbital (2 mM), Phenytoin (50 μM), Rifampicin (10 μM), PCN (10 μM), Dexamethasone (0.1 μM), Cholic Acid (100 μM), and Lithocolic Acid (100 μM) for 24 hours. Treatments are grouped according to the nuclear receptor affected: constitutive androstane receptor (CAR), pregnane X receptor (PXR), glucocorticoid receptor (GR) and farnesoid X receptor (FXR). Values are presented as means±SE of 3 independent experiments with significant differences indicated (*P<0.05).
Mature Yorkshire boars of 175±6 days obtained from the Arkell Swine Research Station at the University of Guelph, Guelph, ON were used for the isolation of Leydig cells. After slaughter, the testes were immediately removed and transported to the laboratory within five minutes. […] Cell viability was determined by trypan blue exclusion. […]
To further understand the molecular mechanisms that control SULT2A1 gene transcription, various nuclear receptor ligands were evaluated for their ability to induce SULT2A1 activity in Leydig cells. […]

CCC1(c2ccccc2)C(=O)NC(=O)NC1=O [phenobarbital]
SULT2A1 activity: did not affect
